{"source": "patent US5405760A", "about": "“Process for producing recombinant McrBC endonuclease and cleavage of methylated DNA” (New England Biolabs, Inc., priority 1992, dated 1995)", "tested_on": "McrBC endonuclease (McrBL + McrC) (Escherichia coli K-12)", "assay": "enzyme reaction in vitro", "conditions": "1 mM GTP, purified recombinant protein", "note": "No signal at the amounts used counts as a negative.", "data": [{"sequence": "AGGTTTACCGCAGCTGCCTCGCGCGTTTCGGTGATGACGGTGAAAACCTCTGACACATGCAGCTCCCGGAGACGGTCACAGC (double strand)", "values": [{"measurement": "functional effect", "setting": "5mC at AGmCT, both strands at one site, one strand at other, Mg", "result": "active"}]}, {"sequence": "AGGTTTACCGCAGCTGCCTCGCGCGTTTCGGTGATGACGGTGAAAACCTCTGACACATGCAGCTCCCGGAGACGGTCACAGC (double strand) [82-bp AluI duplex, m5C at both AluI sites on both strands]", "values": [{"measurement": "functional effect", "setting": "5mC at AGmCT, both sites, both strands, 10 mM Mg, Tris pH 7.5", "result": "active"}]}, {"sequence": "AGGTTTACCGCAGCTGCCTCGCGCGTTTCGGTGATGACGGTGAAAACCTCTGACACATGCAGCTCCCGGAGACGGTCACAGC (double strand) [82-bp AluI duplex, m5C in cis (hemimethylated)]", "values": [{"measurement": "functional effect", "setting": "5mC at AGmCT, both sites on one strand, Mg", "result": "active"}]}, {"sequence": "AGGTTTACCGCAGCTGCCTCGCGCGTTTCGGTGATGACGGTGAAAACCTCTGACACATGCAGCTCCCGGAGACGGTCACAGC (double strand) [82-bp AluI duplex, one m5C on one strand]", "values": [{"measurement": "functional effect", "setting": "5mC at one AGmCT site, one strand, Mg", "result": "not active"}]}, {"sequence": "AGGTTTACCGCAGCTGCCTCGCGCGTTTCGGTGATGACGGTGAAAACCTCTGACACATGCAGCTCCCGGAGACGGTCACAGC (double strand) [82-bp AluI duplex, one site fully methylated]", "values": [{"measurement": "functional effect", "setting": "5mC at one AGmCT site, both strands, Mg", "result": "not active"}]}, {"sequence": "AGGTTTACCGCAGCTGCCTCGCGCGTTTCGGTGATGACGGTGAAAACCTCTGACACATGCAGCTCCCGGAGACGGTCACAGC (double strand) [82-bp AluI duplex, unmethylated]", "values": [{"measurement": "functional effect", "setting": "Mg", "result": "not active"}]}, {"sequence": "AGGTTTACCGCAGCTGCCTCGCGCGTTTCGGTGATGACGGTGAAAACCTCTGACACATGCAGCTCCCGGAGACGGTCACAGC [82-nt AluI single strand]", "values": [{"measurement": "functional effect", "setting": "5mC at AGmCT (regardless of methylation), Mg, single-stranded DNA", "result": "not active"}]}]}
